# In PubChem BioAssay AID504834 (National Center for Advancing Translational Sciences (NCATS), 2011):
# The whole screen tested about 320,000 compounds, of which about 22,000 (6.9%) were called active. Inconclusive means that the source gave no clear call. Such entries were picked first, then a sample of the others. The call rests on the fitted dose curve; in most records, active means well fitted inhibition curve with a large enough effect; inconclusive means small, poorly fitted or top-dose-only effect, or another doubt; inactive means no such curve, though single readings can be large or run the other way. Where the call is inconclusive, the potency comes from a doubtful curve fit.
# Assay: Primary qHTS for delayed death inhibitors of the malarial parasite plastid, 96 hour incubation
# Settings: P. falciparum luciferase reporter growth; series mostly up to 28.7 µM; activity change, negative = inhibition: at the top concentration
# In short: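 Delayed-death screen, second-generation endpoint: infected erythrocytes, 2% hematocrit, 0.05% parasitemia final; 96 hours at 37 C, 5% CO2; luciferase detection reagent; luminescence decrease equals reduced growth.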
# On the % scale 0 is the no-effect control and ±100 the full control effect; potency means the concentration at half of the fitted maximal effect.
Compound,"activity change, negative = inhibition",Potency
COc1cccc(Nc2nc(-c3sc(C)nc3C)cs2)c1,inactive: -1.73%,–
Cc1ccc(C23CC4CC(CC(C(=O)OCC(=O)N(C)C)(C4)C2)C3)cc1,inactive: 5.16%,–
S=C(Nc1ccc(Cl)cc1Cl)N1CCOCC1,inactive: -21.8%,–
Fc1ccc(-n2c(CN3CCCCC3)n[nH]c2=S)cc1,inactive: 13.8%,–
CC1CCc2nn(CC(=O)NCCN3CCCCC3C)cc2C1 (centres undefined),inactive: -14.2%,–
CCOC(=O)c1cc(-c2ccccc2C)nn1CC1CC(c2ccc(OC)cc2)=NO1 (centres undefined),–,"inconclusive: 18.5 µM [inhibitor, single point]"
COc1ccccc1C(=O)N/N=C/c1c[nH]c2ccccc12,–,"inconclusive: 8.28 µM [inhibitor, single point]"
Cc1ccc(C)c(C(=O)CCC(=O)Nc2cccnc2)c1,–,"inconclusive: 11.7 µM [inhibitor, partial curve, poor fit]"
CC(=O)N1CC(C)Sc2ccc(S(=O)(=O)NCCc3ccc(C)cc3)cc21 (centres undefined),–,"inconclusive: 14.7 µM [inhibitor, single point]"
O=C(Nc1cccnc1Cl)c1cc(-c2ccccc2O)on1,inactive: 9.57%,–
N#CCSc1nc2[nH]ncc2c(=O)n1-c1ccccc1Br,inactive: 266%,–
COC(=O)c1ccc(-n2cc(-c3ccc(OC)cc3)[nH]c2=S)cc1,–,"inconclusive: 18.5 µM [inhibitor, single point]"
O[C@@H]([C@H](O)[C@H](O)CBr)[C@H](O)CBr,inactive: -19.8%,–
COc1ccc(-c2[nH]c(-c3ccc(C)cc3)nc2SCC(=O)NC2CCCC2)cc1,inactive: -12.3%,–
O=C(N/N=C/c1ccc([N+](=O)[O-])o1)c1ccc(NS(=O)(=O)c2cccs2)cc1,–,active: 0.928 µM
Cc1cc2ccccc2n1CCNC(=O)COc1ccccc1,–,"inconclusive: 10.4 µM [inhibitor, single point]"
CCOc1ccccc1NC(=S)NC(=O)C1CC1,–,"inconclusive: 13.1 µM [inhibitor, partial curve, poor fit]"
C[C@H](NC(=O)c1[nH]cnc1C(=O)Nc1ccccc1)C(=O)OC(C)(C)C,–,"inconclusive: 18.5 µM [inhibitor, single point]"
CCc1ccc(-c2cc3c(=O)n(CC(=O)NCCCN4CCN(Cc5ccccc5)CC4)nc(C)n3n2)cc1,–,"inconclusive: 16.5 µM [inhibitor, partial curve, poor fit]"
COc1ccc(CNC(=O)C2CCN(c3nc(-c4ccccc4)nc4c3CCC4)CC2)cc1,–,"inconclusive: 18.5 µM [inhibitor, single point]"
O=C(/C=C/c1ccco1)Nc1ccccc1N1CCCC1,–,"inconclusive: 0.0037 µM [inhibitor, full curve, poor fit]"
COc1ccc(NC(=O)CC(c2ccc(F)cc2)c2ccc(OC(C)C)cc2)cc1 (centres undefined),–,"inconclusive: 13.1 µM [inhibitor, single point]"

Compound,"activity change, negative = inhibition",Potency
CCN(CCCNC(=O)CN1C(=O)COc2ccc(S(=O)(=O)N3CCC(C)CC3)cc21)Cc1ccccc1,–,"inconclusive: 0.37 µM [inhibitor, full curve]"
CCCCn1c(N)c(N(CCOC)C(=O)c2c(-c3ccccc3)noc2C)c(=O)[nH]c1=O,–,"inconclusive: 11.7 µM [inhibitor, single point]"
COc1ccc(N=C2SC(C(=O)Nc3ccc(F)cc3)CC(=O)N2C)cc1 (centres undefined),inactive: 3.01%,–
Cc1cc(C)cc(NC(=O)/C=C/c2ccc([N+](=O)[O-])s2)c1,–,"inconclusive: 14.7 µM [inhibitor, single point]"
COCCCNC(=O)C1CCN(c2nc(C)cc(C)n2)CC1,–,active: 5.22 µM
O=C(CC1CCCCC1)NCc1nc(-c2ccccc2)no1,inactive: 20.1%,–
O=C1CC(c2ccc(Br)cc2)NC(c2ccc(Br)cc2)C1c1ccccc1 (centres undefined),–,"inconclusive: 18.5 µM [inhibitor, single point]"
CN1CCN(CC(=O)Nc2c(C(=O)C3CC3)oc3ccccc23)CC1,inactive: 29.7%,–
Cc1cc(C)cc(NC(=S)N(Cc2ccc(Br)cc2)Cc2ccc(C(=O)O)cc2)c1,–,"inconclusive: 0.0033 µM [inhibitor, full curve, poor fit]"
N#CCCn1c(SCC(=O)NCCc2ccc(F)cc2)nc2ccccc21,–,"inconclusive: 20.8 µM [inhibitor, single point]"
CCc1ccccc1NC(=O)C(Cc1cccc(OC)c1OC)c1nn[nH]n1 (centres undefined),–,"inconclusive: 6.57 µM [inhibitor, partial curve, poor fit]"
COC(=O)C1=C(C)NC(=O)C1(NC(=O)CN1CCCC1=O)C(F)(F)F (centres undefined),–,"inconclusive: 10.4 µM [inhibitor, single point]"
CC(C)OC(=O)CC1C(=O)NCCN1C(=S)NC(=O)c1ccccc1 (centres undefined),–,"inconclusive: 14.7 µM [inhibitor, single point]"
O=c1[nH]c(Nc2ccc(F)cc2)cc2ccccc12,–,"inconclusive: 18.5 µM [inhibitor, single point]"
COc1ccc2c(c1)-c1c(ssc1=S)C(C)(C)N2S(=O)(=O)c1ccc(C)cc1,–,"inconclusive: 10.4 µM [inhibitor, partial curve, poor fit]"
CC(C)n1c(=O)c(C=Nc2ccc(F)cc2)c(O)n(Cc2ccco2)c1=O,–,"inconclusive: 18.5 µM [inhibitor, single point]"
Cc1cccc(C(=O)N(CCc2ccccc2)Cc2ccccc2)c1[N+](=O)[O-],–,"inconclusive: 18.5 µM [inhibitor, single point]"
COC(=O)C1=C(N)c2c(F)cccc2C1(C#N)c1ccccc1 (centres undefined),–,"inconclusive: 13.1 µM [inhibitor, single point]"
COc1ccc(-c2noc(N3CCC(C(=O)N(C)c4ccccc4C)CC3)n2)cc1,–,"inconclusive: 18.5 µM [inhibitor, single point]"
COc1ccc(CNC(=O)C(c2ccncc2)N(C(=O)Cc2cccs2)c2cccc(C)c2)cc1 (centres undefined),–,"inconclusive: 8.28 µM [inhibitor, partial curve]"
COC(=O)N/N=C/c1cn(CCOc2cccc(OC)c2)c2ccccc12,–,"inconclusive: 18.5 µM [inhibitor, single point]"
CCN1CCN(S(=O)(=O)c2cnc(Cl)c(Br)c2)CC1,–,"inconclusive: 0.415 µM [inhibitor, partial curve, poor fit]"

# Record cards, as listed above. Values in the order: activity change, negative = inhibition	Potency
# CCc1ccccc1NC(=O)C(Cc1cccc(OC)c1OC)c1nn[nH]n1 (centres undefined) in the list: –	inconclusive: 6.57 µM [inhibitor, partial curve, poor fit]
# O=c1[nH]c(Nc2ccc(F)cc2)cc2ccccc12 in the list: –	inconclusive: 18.5 µM [inhibitor, single point]
# Cc1cccc(C(=O)N(CCc2ccccc2)Cc2ccccc2)c1[N+](=O)[O-] in the list: –	inconclusive: 18.5 µM [inhibitor, single point]
# Cc1cc(C)cc(NC(=O)/C=C/c2ccc([N+](=O)[O-])s2)c1 in the list: –	inconclusive: 14.7 µM [inhibitor, single point]
